Test results taken from paper PMC7378253.
Results are given in words; binding and its absence hold for the method and conditions named. Binding seen in cells or lysates may run through a third protein. Some entries that bind do so weakly or less than the wild type.

Protein sequences, listed by entry. Tags and fused reporters are not part of them.
UniProt Q8CFI0: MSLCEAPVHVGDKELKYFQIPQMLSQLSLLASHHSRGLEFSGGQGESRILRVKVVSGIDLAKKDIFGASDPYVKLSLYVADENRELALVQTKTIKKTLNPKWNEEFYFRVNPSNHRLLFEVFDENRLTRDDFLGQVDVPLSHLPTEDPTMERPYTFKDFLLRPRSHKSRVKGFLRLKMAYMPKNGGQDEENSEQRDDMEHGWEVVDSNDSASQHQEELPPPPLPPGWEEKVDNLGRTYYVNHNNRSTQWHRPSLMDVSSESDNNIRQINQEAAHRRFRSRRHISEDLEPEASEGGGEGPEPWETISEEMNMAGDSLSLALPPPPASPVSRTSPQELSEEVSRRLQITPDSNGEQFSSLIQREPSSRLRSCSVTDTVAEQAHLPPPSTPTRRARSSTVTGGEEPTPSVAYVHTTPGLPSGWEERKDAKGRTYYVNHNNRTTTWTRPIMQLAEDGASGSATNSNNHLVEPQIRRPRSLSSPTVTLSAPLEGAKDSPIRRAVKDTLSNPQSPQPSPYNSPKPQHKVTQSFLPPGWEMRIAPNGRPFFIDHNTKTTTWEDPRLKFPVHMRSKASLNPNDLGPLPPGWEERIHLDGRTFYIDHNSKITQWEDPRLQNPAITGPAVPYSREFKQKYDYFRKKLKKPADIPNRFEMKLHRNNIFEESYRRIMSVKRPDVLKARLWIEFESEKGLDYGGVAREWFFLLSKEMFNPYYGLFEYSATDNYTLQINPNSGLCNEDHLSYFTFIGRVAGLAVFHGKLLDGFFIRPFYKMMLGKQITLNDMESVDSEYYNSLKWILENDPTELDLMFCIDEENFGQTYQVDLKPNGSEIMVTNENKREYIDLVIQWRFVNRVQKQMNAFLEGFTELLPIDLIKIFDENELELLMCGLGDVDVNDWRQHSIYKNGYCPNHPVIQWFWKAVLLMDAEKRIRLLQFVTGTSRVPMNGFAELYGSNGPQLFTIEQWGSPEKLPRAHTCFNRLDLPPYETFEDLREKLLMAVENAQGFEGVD

Biological target: T1, Neuregulin 1 (NRG1) (mouse (endogenous in mPFC tissue of C57BL/6J mice)) (UniProt Q6DR98)
T1 sequence: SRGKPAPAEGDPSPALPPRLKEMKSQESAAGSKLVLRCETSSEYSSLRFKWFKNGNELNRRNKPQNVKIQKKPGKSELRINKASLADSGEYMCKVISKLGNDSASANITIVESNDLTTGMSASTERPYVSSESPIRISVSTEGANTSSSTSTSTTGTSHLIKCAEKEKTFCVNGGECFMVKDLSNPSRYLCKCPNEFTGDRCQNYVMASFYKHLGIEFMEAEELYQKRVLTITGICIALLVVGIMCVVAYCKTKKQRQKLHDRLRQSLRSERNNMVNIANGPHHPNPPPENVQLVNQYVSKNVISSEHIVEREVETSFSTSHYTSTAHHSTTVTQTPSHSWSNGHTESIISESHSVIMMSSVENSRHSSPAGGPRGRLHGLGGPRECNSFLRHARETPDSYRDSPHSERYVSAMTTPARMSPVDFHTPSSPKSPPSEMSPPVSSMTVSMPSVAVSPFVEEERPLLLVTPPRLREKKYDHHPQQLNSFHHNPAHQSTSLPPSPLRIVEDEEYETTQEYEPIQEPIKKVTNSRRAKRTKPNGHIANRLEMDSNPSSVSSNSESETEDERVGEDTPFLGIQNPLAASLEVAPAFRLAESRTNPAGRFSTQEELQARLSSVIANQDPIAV
Assay: co-IP; mPFC tissue homogenates of CTR, SS and RES mice after CSDS; pre-cleared with protein A + G agarose, incubated with specific antibodies and protein A + G agarose at 4 °C overnight, pellets washed three times with PBS, western blotting

## Nedd4l (neural precursor cell expressed developmentally downregulated 4-like) (from UniProt Q8CFI0 1-1004) (enzyme)
  binding: binds
